# This is one part of the list. These are further read-outs of the screen, such as a control signal, another cell line or another target. No call is given for them. Most of these compounds were active or inconclusive in the main read-out, so they are no random draw. Words in brackets tell the shape of the fitted curve; partial curves, single points and poor fits give uncertain potencies.
# Assay: qHTS Assay for Lipid Storage Modulators in Drosophila S3 Cells;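 as to cell number change: cells counted by Cell Tracker Red CMTPX staining in the red channel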
# Conditions: BODIPY lipid droplet fluorescence, 18-24 h; for cell number change: measured here: cell count max response, cells fed with added oleic acid
# Procedure, shortened: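 Laser-scanning cytometry quantifies lipid droplet accumulation (500–530 nm total intensity; droplet/cell object ratio) in oleic acid-fed (400 uM added) Drosophila S3 cells treated with a concentration series. 20 uM Triacsin C defined 100% inhibition.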
# [1] = measured here: lipid fluorescence (Fed channel) AC50, cells fed with added oleic acid
# [2] = measured here: cell number channel AC50, cells fed with added oleic acid
Compound,cell number change [%],AC50 [1],AC50 [2]
CN(C)c1cc[n+](CC(=O)Nc2cccc([N+](=O)[O-])c2)cc1,20.7,"4.61 nM [rising, full curve, poor fit]",–
COc1cc(C(=O)Nc2cccc(S(=O)(=O)N3CCCC3)c2)cc(OC)c1C,-20.8,"731 nM [falling, single point]",–
Cc1ccc(Cn2ccc(NC(=O)c3noc4c3CCc3ccccc3-4)n2)cc1,–,"4.11 nM [rising, full curve, poor fit]","1300 nM [rising, partial curve]"
c1ccc(Cc2nnc3n2N=C(c2ccccc2)CS3)cc1,7.08,"731 nM [falling, full curve]","731 nM [falling, full curve]"
O=C(NCCCn1ccnc1)/C(=C\c1ccccc1F)NC(=O)c1ccccc1,-1.28,–,–
CC1S/C(=N/N=C/c2ccco2)N(Cc2ccccc2)C1=O (stereo unspecified),6.21,–,"92 nM [falling, full curve, poor fit]"
CCC(C)(C)n1nnnc1CN(Cc1ccco1)Cc1cc2cc3c(cc2[nH]c1=O)OCO3,-25.9,–,–
COc1ccccc1CC(=O)NC1CCN(Cc2ccccc2)CC1,22.2,–,–
CC(Nc1c([N+](=O)[O-])c(=O)oc2ccccc12)C(Cl)c1ccccc1 (stereo unspecified),8.46,"20.6 nM [rising, partial curve, poor fit]",–
CNC[C@H](CC1CCCCC1)NC[C@H](CO)NCC1(c2ccccc2)CC1,19.2,–,"1840 nM [rising, partial curve, poor fit]"
CC(C)OC(=O)Nc1ccc(Oc2c(F)c(F)c(F)c(F)c2F)cc1,-43.9,"29100 nM [falling, single point]","18400 nM [falling, single point]"
CC(=O)c1ccc(N2CCN(C(=O)c3nn(Cc4ccccc4)c(=O)c4ccccc34)CC2)cc1,-24.5,"820 nM [falling, full curve, poor fit]",–
O=C(Nc1cccs1)Nc1c(F)cc(F)cc1Br,32.3,"6510 nM [rising, single point]","2060 nM [rising, full curve]"
COc1ccc(CCN2CCCC(CN(C)Cc3cc(OC)ccc3OC)C2)cc1 (stereo unspecified),-4.92,"164 nM [rising, full curve, poor fit]",–
Clc1cccc(N/N=C/c2ccncc2)c1,-9.84,"146 nM [rising, full curve, poor fit]",–
Cc1ccc(NC(=O)CCNC(=O)c2ccc([N+](=O)[O-])cc2)cc1S(=O)(=O)N1CCOCC1,6.89,"6510 nM [falling, single point]",–
COc1cccc(C(C(=O)NCc2ccccc2)N(C(=O)c2csnn2)C2CC2)c1 (stereo unspecified),-12.4,–,–
Cc1cc(=O)oc2cc(OCC(=O)NCCc3ccccc3)ccc12,7.89,–,–
CN(CC(=O)Nc1ccc(F)c(F)c1F)C(=O)CN1C(=O)NC2(CCCC2)C1=O,-3.21,–,–
CCCCN(C(=O)CC1CCCC1)c1c(N)n(CCCC)c(=O)[nH]c1=O,-5.42,"29100 nM [falling, partial curve]",–

Compound,cell number change [%],AC50 [1],AC50 [2]
COC(=O)c1sc(NC(=O)COC(=O)C2CCC2)c(C(=O)OC)c1C,-15.3,"326 nM [falling, full curve, poor fit]",–
COc1ccc(C(C)=O)cc1CC(=O)Nc1ccccc1-c1ccccc1,-15.9,"4610 nM [falling, full curve, poor fit]",–
Cc1cc2c(=O)n(C)c(SCC(=O)NC3CCCC3)nc2s1,20.8,"2060 nM [rising, full curve]","184 nM [rising, full curve, poor fit]"
Cc1nnc(N2CCOCC2)c2nn(-c3ccccc3)c(C)c12,8.61,"8200 nM [rising, partial curve]",–
CCc1cc(CNC(=O)C2CCC(=O)N(CCc3ccc(OC)cc3)C2)on1 (stereo unspecified),8.91,–,"3260 nM [rising, single point]"
O=[N+]([O-])c1ccc(O)c(/C=N/NC(=S)Nc2ccc(Cl)cc2Cl)c1,-59.9,"5800 nM [falling, partial curve]","920 nM [falling, full curve, poor fit]"
O=C1OC(Cc2ccccn2)C(O)=C1C1=NCCCCN1 (stereo unspecified),-16.1,–,"3660 nM [falling, single point]"
CC(C)c1ccc(NC(=S)NC2CCCCCC2)cc1,-32.3,–,"6510 nM [falling, partial curve]"
N#Cc1cc2c(nc1S(=O)(=O)Cc1ccccc1)CCCC2,–,"580 nM [falling, full curve]",–
CCOc1ccccc1CN1CCNC(=O)C1CC(=O)NCc1nc(C)cs1 (stereo unspecified),-0.567,"1300 nM [rising, full curve]",–
COc1ccccc1NC(=O)Cn1nnc(-c2ccccc2NC(=O)c2cc3ccccc3oc2=O)n1,-2.53,"259 nM [rising, full curve, poor fit]",–
COc1cccc(CN2CC(C(=O)NCCCc3ccncc3)CCC2=O)c1 (stereo unspecified),9.83,"820 nM [rising, full curve, poor fit]",–
CN(c1ccc(C(=O)Nc2cccc(O)c2)cc1)S(=O)(=O)c1ccccc1,4.95,"29100 nM [falling, single point]",–
C=CCNC(=S)N1CCN(Cc2ccccc2)CC1,17,–,–
COCc1cc(=O)[nH]c(SCC(=O)Nc2ccccc2)n1,-66.4,"29100 nM [falling, single point]","25900 nM [falling, single point]"
O=C(NCc1ccco1)c1ccccc1-c1nc(-c2ccccc2)no1,0.349,–,–
CC(C)CNS(=O)(=O)c1ccc(CCC(=O)N2CCC(C(N)=O)CC2)cc1,-4.5,–,"580 nM [falling, single point]"
Cc1cccc(-n2ccnc2SCC(=O)Nc2nnc(C)s2)c1,31.1,"29100 nM [rising, single point]","1840 nM [rising, single point]"
O=C(NNS(=O)(=O)c1ccc(Cl)cc1)c1cc(-c2ccccc2)nc2ccccc12,30.4,"1840 nM [rising, full curve]","6510 nM [rising, partial curve]"
Cc1c(C(=O)Nc2ccc(F)cc2)oc2ccc(S(=O)(=O)N3CCCC3)cc12,2.04,–,–

Compound,cell number change [%],AC50 [1],AC50 [2]
COc1ccccc1OCC(=O)Nc1oc(-c2ccccc2)c(-c2ccccc2)c1C#N,-3.35,"9200 nM [rising, partial curve]",–
COc1cccc(C(C)NC(=O)Cc2cccs2)c1 (stereo unspecified),-0.275,"29100 nM [falling, single point]",–
C=CCC(C=C)[N+]1(CC(=O)OC)CCCCC1 (stereo unspecified),1.51,"116 nM [falling, full curve, poor fit]",–
CCOC(NC(=O)c1ccccc1)C(NC(=O)c1ccccc1)OCC (stereo unspecified),5.4,"731 nM [falling, partial curve]","13 nM [falling, full curve, poor fit]"
CCCC[C@@H]1C[C@H]1[C@@H](NC(=O)c1ccco1)c1ccc(Cl)cc1,2.52,"29100 nM [rising, single point]",–
CCOC(=O)C1CCN(C(=O)CNC(=O)c2nn(-c3ccc(OC)c(OC)c3)c(=O)c3ccccc23)CC1,-5.56,–,–
CC(OC(=O)CNC(=O)c1ccccc1F)C(=O)Nc1nc(-c2ccccc2)cs1 (stereo unspecified),18,"29100 nM [rising, single point]",–
COc1ccc(-n2c(C)cc(-c3cn4cccc(C)c4n3)c2C)cc1,28.8,"10300 nM [rising, partial curve, poor fit]","2310 nM [rising, full curve, poor fit]"
N#Cc1ccc(-c2nnnn2-c2ccc3c(c2)OCO3)cc1,64.3,"20600 nM [rising, single point]","29100 nM [rising, single point]"
N#Cc1ccc(OCC(=O)N2CCN(S(=O)(=O)c3cccs3)CC2)cc1,-9.26,"29100 nM [rising, single point]",–
COc1ccc(NC(=O)COC(=O)c2ncc(Cl)c(Cl)c2Cl)c(OC)c1,-16.7,"366 nM [falling, full curve, poor fit]","1460 nM [falling, partial curve]"
CC(=O)Nc1ccc(OCC(O)CN2CCN(c3ccc(C)c(Cl)c3)CC2)cc1 (stereo unspecified),5.31,–,"6510 nM [rising, single point]"
CCOC(=O)N1CCC(NC(=O)c2ccc3c(c2)sc2nc(-c4ccccc4)cn23)CC1,-25.6,–,–
CCS(=O)(=O)c1ccc2oc(SCC(=O)Nc3ccc(OC)cc3OC)nc2c1,31.2,–,"13000 nM [rising, single point]"
O=C(NC12CC3CC(CC(C3)C1)C2)N1CCN(C(=O)c2ccco2)CC1,-26.3,–,"3660 nM [falling, full curve, poor fit]"
COc1ccc(S(=O)(=O)Nc2ccc(N3CCOCC3)nc2)cc1,–,"1460 nM [falling, full curve, poor fit]",–
C/C(=N\O)C(=O)NCCN(C)C,37.2,–,"32600 nM [rising, single point]"
CC(=O)c1c(NCCc2ccccc2)nc(=S)n(-c2ccccc2)c1C,-10.9,"116 nM [falling, full curve, poor fit]","1640 nM [rising, partial curve, poor fit]"

# Structures listed so far with a cyano group (four):
Compound,cell number change [%],AC50 [1],AC50 [2]
N#Cc1cc2c(nc1S(=O)(=O)Cc1ccccc1)CCCC2,–,"580 nM [falling, full curve]",–
COc1ccccc1OCC(=O)Nc1oc(-c2ccccc2)c(-c2ccccc2)c1C#N,-3.35,"9200 nM [rising, partial curve]",–
N#Cc1ccc(-c2nnnn2-c2ccc3c(c2)OCO3)cc1,64.3,"20600 nM [rising, single point]","29100 nM [rising, single point]"
N#Cc1ccc(OCC(=O)N2CCN(S(=O)(=O)c3cccs3)CC2)cc1,-9.26,"29100 nM [rising, single point]",–
